According to patent publication US12290565B2, “Methods of using anti-PSGL-1 antibodies in combination with JAK inhibitors to treat T-cell mediated inflammatory diseases or cancers” (AltruBio Inc., priority 2021, dated 2025):
For part of these data: At least one compound was matched to its structure with a doubt left. Some results were stated once for a whole list of compounds, not compound by compound.

Tests used:
[1] = system: xenogeneic GvHD in ASID mice engrafted with human PBMCs; assay: Xenogeneic graft-versus-host disease (GvHD) mouse model, survival; type: in vivo; details: single-agent treatment; vehicle group none past day 16; Day 1 = treatment start
Protocol: 8-9 weeks old female Advanced Severe Immuno-Deficiency (ASID) mice (NOD.Cg-Prkdc^scidIl2rg^tm1Wjl/YckNarl; NLAC NARLabs Taiwan) received a total body irradiation dose of 2.0 Gy and were engrafted with 3×10^6 human PBMCs by tail vein injection at 24 hours post irradiation. The mice were kept under pathogen-free conditions and reared under standardized methods as temperature set at 22±1° C. with a 12-hour daylight/dark cycle and full access to food and water. Experimental animals were randomly divided into treatment groups after receiving a minimum of 3 days of acclimatization to the environment.
Xenogeneic GvHD (xGvHD) was induced in ASID mice receiving 3×10^6 human PBMCs (n=5-7 per group). Post 72 hours of human PBMC engraftment, ruxolitinib at 45 mg/kg or vehicle was orally administered twice daily for 15 days, as well as anti-PSGL-1 15A7H antibody at 10 mg/kg or vehicle was intravenously administered every 3 to 4 days for total 5 doses. Mice were assessed for survival daily. The time of the treatment initiated was designated as Day 1.

activated T cells [2] = assay: Cell apoptosis assay, rapamycin and/or 15A7H; type: cell-based, human; details: rapamycin alone, 0.122 to 10 μM, 48 hr
activated T cells [3] = assay: Fixed-ratio combination cytotoxicity assay, ruxolitinib + LH10, c43B6 or h9F9; type: cell-based; details: ratios 3.3:1, 1.1:1 and 0.37:1, 48 hr; most CI values for the 35% to 85% fractions of donor T cells affected
Protocol: PBMCs were obtained from peripheral blood of healthy donors. Isolation was performed by density centrifugation of blood on Ficoll (GE Healthcare, Cat #17-1440-03). The harvested PBMCs were used for the generation of activated T cells by incubating with PHA (3 μg/mL, SIGMA, Cat: L2769-10 mg) in RPMI-1640 medium (10% FBS, 1% Penicillin/Streptomycin and 2-Mercaptoethanol) for 2 days, followed by maintenance in medium containing recombinant human Interleukin-2 (5 ng/mL, R&D Systems, Cat. #202-IL-050) for an additional between about 4˜6 days.
In addition to 15A7H, anti-PSGL-1 antibodies LH10, c43B6 and h9F9 were tested for the ability to induce cell death in activated T cells. The purpose of this study was to determine whether apoptosis inducing anti-PSGL-1 antibodies plus ruxolitinib would result in a better cytotoxic effect on activated T cells. The combinatorial effect was evaluated using Chou-Talalay median effect analysis using fixed ratios of antibodies and ruxolitinib in cytotoxicity assays. […]
Cell apoptosis was determined as described in Example 1, and the combinatorial drug effect combination indexes (CI) were analyzed using CalcuSyn (Biosoft, Ferguson, MO, USA), which allows automated simulation of synergism or antagonism, where CI<1 indicates synergy, CI=1 indicates additivity, and CI>1 indicates antagonism.

Molecule: N#CC[C@H](C1CCCC1)n1cc(-c2ncnc3[nH]ccc23)cn1 [RUXO, (R)-3-(4-(7H-pyrrolo[2,3-d]pyrimidin-4-yl)-1 H-pyrazol-1-yl)-3-cyclopentylpropanenitrile]
- survival: none survived past day [1]: ≤ 18 days

Molecule: CO[C@H]1C[C@@H]2CC[C@@H](C)[C@@](O)(O2)C(=O)C(=O)N2CCCC[C@H]2C(=O)O[C@H]([C@H](C)C[C@@H]2CC[C@@H](O)[C@H](OC)C2)CC(=O)[C@H](C)/C=C(\C)[C@@H](O)[C@@H](OC)C(=O)[C@H](C)C[C@H](C)/C=C/C=C/C=C/1C [rapamycin]
- level of cell apoptosis (activated T cells [2]): did not result in any significant level of cell apoptosis

B1: h9F9: anti-PSGL-1 antibody; heavy chain SEQ ID NO:35, light chain SEQ ID NO:39 (antibody)
heavy: EVQLVESGGGLVQPGGSLKLSCAASGFTFNTNAMNWVRQAPGKGLEWVARIRSKSNNYATYYADSVKDRFTISRDDSKSIIYLQMNSLKTEDTGIYYCVRGGSYWYFDVWGTGTTVTVSSASTKGPSVFPLAPCSRSTSESTAALGCLVKDYFPEPVTVSWNSGALTSGVHTFPAVLQSSGLYSLSSVVTVPSSSLGTKTYTCNVDHKPSNTKVDKRVESKYGPPCPPCPAPPVAGGPSVFLFPPKPKDTLMISRTPEVTCVVVDVSQEDPEVQFNWYVDGVEVHNAKTKPREEQFNSTYRVVSVLTVLHQDWLNGKEYKCKVSNKGLPSSIEKTISKAKGQPREPQVYTLPPSQEEMTKNQVSLTCLVKGFYPSDIAVEWESNGQPENNYKTTPPVLDSDGSFFLYSRLTVDKSRWQEGNVFSCSVMHEALHNHYTQKSLSLSLG
light: DVIMTQSPLSLPVSLGQPASISCRSSQSIVNSNGNTYLEWYLQKPGQSPRLLIYKVSNRFSGVPDRFSGSGSGTDFTLKISRVEAEDVGVYYCFQGSHVPWTFGGGTKLEIKRTVAAPSVFIFPPSDEQLKSGTASVVCLLNNFYPREAKVQWKVDNALQSGNSQESVTEQDSKDSTYSLSSTLTLSKADYEKHKVYACEVTHQGLSSPVTKSFNRGEC
- CI values of the combination with ruxolitinib (activated T cells [3]): below 0.9
